The target of the assay is BMAL1 (mouse (endogenous in mouse adult fibroblasts)) (UniProt Q9WTL8). As to the kind of experiment: co-IP; BMAL1 immunoprecipitated (Dynabeads Protein G kit) from total protein extracts of control and senescent mouse adult fibroblasts collected 12 hours post-synchronization; half of the samples DNase digested (TURBO DNase, 6 U); flow through and elution blotted for c-Jun.

Protein sequences, listed by entry. Tags and fused reporters are not part of them.
UniProt Q9WTL8: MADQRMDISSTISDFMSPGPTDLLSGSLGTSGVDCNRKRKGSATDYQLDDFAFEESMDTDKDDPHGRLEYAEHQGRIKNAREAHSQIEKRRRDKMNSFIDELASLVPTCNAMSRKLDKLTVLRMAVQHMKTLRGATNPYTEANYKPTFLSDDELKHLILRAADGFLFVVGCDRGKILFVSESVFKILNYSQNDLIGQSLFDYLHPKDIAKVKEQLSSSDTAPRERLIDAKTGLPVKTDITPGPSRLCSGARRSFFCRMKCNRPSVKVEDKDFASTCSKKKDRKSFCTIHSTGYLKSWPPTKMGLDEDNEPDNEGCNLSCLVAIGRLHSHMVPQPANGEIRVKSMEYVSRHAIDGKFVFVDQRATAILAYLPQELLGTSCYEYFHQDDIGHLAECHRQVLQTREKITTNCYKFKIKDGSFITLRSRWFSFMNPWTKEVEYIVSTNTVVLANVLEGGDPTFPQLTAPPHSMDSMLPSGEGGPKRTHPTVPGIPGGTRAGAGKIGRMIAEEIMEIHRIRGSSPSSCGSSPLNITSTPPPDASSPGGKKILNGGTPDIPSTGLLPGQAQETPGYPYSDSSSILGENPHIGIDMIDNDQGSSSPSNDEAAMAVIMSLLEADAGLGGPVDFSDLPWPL
UniProt P05627: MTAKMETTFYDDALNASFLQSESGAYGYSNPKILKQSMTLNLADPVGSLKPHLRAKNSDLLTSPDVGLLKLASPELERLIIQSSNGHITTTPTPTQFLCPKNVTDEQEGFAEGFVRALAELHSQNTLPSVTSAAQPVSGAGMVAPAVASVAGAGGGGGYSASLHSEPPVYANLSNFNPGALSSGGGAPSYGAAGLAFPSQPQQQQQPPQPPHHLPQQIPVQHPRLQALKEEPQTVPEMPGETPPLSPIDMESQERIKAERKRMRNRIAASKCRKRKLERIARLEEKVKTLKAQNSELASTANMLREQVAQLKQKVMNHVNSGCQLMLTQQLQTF

These are yes or no findings as the source states them, for the method shown. In cells and extracts the contact can be indirect.

Consider c-Jun (from UniProt P05627 1-334), for which the binding result is listed as “no binding”.

For the origin of these results see paper PMC10599731.
